From patent US10053477B2, “Spirocyclic aryl phosphorus oxide and aryl phosphorus sulfide” (QILU PHARMACEUTICAL CO., LTD., priority 2014, dated 2018)
Some of these results come from one statement about several compounds together. Some ranges recur; such a range may be that of the whole group of compounds.

test system: LU-01-0015 xenotransplantation (PDX) from lung cancer patients; experiment: In vivo efficacy, LU-01-0015 xenotransplantation (PDX) from lung cancer patients; set-up: species or system BALB/c nude mice; conditions: after 16 days, 25 mg/kg
Description: BALB/c nude mice, female, 6 to 8 weeks, about 18 to 22 g bodyweight, was kept in a special environment without pathogens, and a single ventilated cage (5 mice per cage). Beddings and water in all the cages were disinfected before use. […] 80 mice were supplied by Shanghai BK Laboratory Animal Co., LTD for study. Each mouse was subcutaneously implanted tumor tissue (20-30 mm^3) at right flank for growth of tumor. When the average tumor volume reached about 250-300 mm^3, the assay started. Test compounds were delivered orally everyday, 25 mg/kg. Tumor size was measured with two-dimensional caliper every 3 days, size was recorded by mm^3, and calculated by the following formula: V=V=0.5a×b2, where a and b are respectively the long diameter and short diameter length of the tumor. The antitumor efficacy was determined by dividing the average increased tumor volume in compound-treated animal by the average increased tumor volume in untreated animal.

SMILES	tumor volume was reduced to (from 277 mm^3)
COc1cc(N2CCC3(CCN(C)CC3)CC2)ccc1Nc1ncc(Cl)c(Nc2ccccc2P(C)(C)=O)n1 [Compound 9, (2-((5-Chloro-2-((2-methoxy-4-(9-methyl-3,9-diazaspiro[5.5]undecan-3-yl)phenyl)amino)pyrimidin-4-yl)amino)phenyl)dimethyl phosphine oxide]	34-50 mm^3
COc1cc(N2CCC3(CCN(C)CC3)CC2)c(Cl)cc1Nc1ncc(Cl)c(Nc2ccccc2P(C)(C)=O)n1 [Compound 22, (2-((5-Chloro-2-((5-chloro-2-methoxy-4-(9-methyl-3,9-diazaspiro[5.5]undecan-3-yl)phenyl)amino)pyrimidin-4-yl)amino)phenyl)dimethyl phosphine oxide]	34-50 mm^3
COc1cc(C2CCC3(CC2)CCN(C)CC3)ccc1Nc1ncc(Cl)c(Nc2ccccc2P(C)(C)=O)n1 [Compound 27, (2-((5-Chloro-2-((2-methoxy-4-(3-methyl-3-azaspiro[5.5]undecan-9-yl)phenyl)amino)pyrimidin-4-yl)amino)phenyl)dimethyl phosphine oxide]	34-50 mm^3
